{"source": "patent US7034070B2", "about": "“Arylalkyl aminofunctional silanes for epoxy laminates” (priority 2002, dated 2006)", "assay": "Tensile strength of silane-treated glass fabrics", "details": "40% solids product, 7628 glass fabric"}
{"substance": "CH3CH2C6H4CH2NH(CH2)2NH(CH2)3Si(OCH3)3•HCl [Example 1]", "values": [{"measurement": "RTS % (relative tensile strength, 128.7 kg/5 cm of 0.67% Z-6224 taken as 100)", "setting": "Silane Conc. 0.40%", "result": 95.5, "unit": "%"}, {"measurement": "Tensile Strength (at break)", "setting": "Silane Conc. 0.40%", "result": 122.9, "unit": "kg/5 cm"}, {"measurement": "RTS % (relative tensile strength, 128.7 kg/5 cm of 0.67% Z-6224 taken as 100)", "setting": "Silane Conc. 0.67%", "result": 109, "unit": "%"}, {"measurement": "Tensile Strength (at break)", "setting": "Silane Conc. 0.67%", "result": 140.4, "unit": "kg/5 cm"}, {"measurement": "RTS % (relative tensile strength, 128.7 kg/5 cm of 0.67% Z-6224 taken as 100)", "setting": "Silane Conc. 1.00%", "result": 108, "unit": "%"}, {"measurement": "Tensile Strength (at break)", "setting": "Silane Conc. 1.00%", "result": 139.1, "unit": "kg/5 cm"}]}
{"substance": "CH3CH2C6H4CH2NH(CH2)2NH(CH2)3SiCH3(OCH3)2•HCl [Example 3]", "values": [{"measurement": "RTS % (relative tensile strength, 128.7 kg/5 cm of 0.67% Z-6224 taken as 100)", "setting": "Silane Conc. 0.67%", "result": 109, "unit": "%"}, {"measurement": "Tensile Strength (at break)", "setting": "Silane Conc. 0.67%", "result": 140, "unit": "kg/5 cm"}]}
